{"source": "PubChem BioAssay AID1259308 (NCATS, 2017)", "aim": "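Genes whose loss raises luciferase production in HEK293 cells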 (primary screen)", "cells": "human HEK293 embryonic kidney cells stably expressing firefly luciferase (HEK-CMV-Luc2-Hygro)", "knock-down reagent": "single siRNA against human genes, 0.8 pmol siRNA per well", "timing": "72 h", "measured": "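Luciferase light (ONE-Glo) measured on one replicate plate set and viability (CellTiter-Glo) on the other, scaled to a negative control siRNA, with robust z-scores and luciferase per cell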", "scale": "total luciferase, z-score: higher = more reporter protein produced", "call rule": "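Active when the median/MAD z-score for overall luciferase is greater than 3; a gene was taken forward for validation with new siRNAs if at least two of its three siRNAs passed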", "meaning of the calls": "active = raised luciferase; inactive = no rise", "note": "In all, the deposit lists about 59,000 reagents; this is an unselected part. About 1,510 of all reagents (2.6%) were called active. 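Calls use total luciferase alone and ignore viability, so some active siRNAs may act by altering cell number.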 A number with no mark means an inactive call. Further read-outs or replicates are left out here."}
{"target gene": "AMN", "PubChem SID": "SID160724580", "total luciferase, z-score": 2.52}
{"target gene": "AMN", "PubChem SID": "SID160724581", "total luciferase, z-score": 0.216}
{"target gene": "AMN", "PubChem SID": "SID160724582", "total luciferase, z-score": "6.62 (active)"}
{"target gene": "XKRX", "PubChem SID": "SID160767448", "total luciferase, z-score": -0.831}
{"target gene": "XKRX", "PubChem SID": "SID160767449", "total luciferase, z-score": -2.05}
{"target gene": "XKRX", "PubChem SID": "SID160767450", "total luciferase, z-score": "3.38 (active)"}
{"target gene": "MANBAL", "PubChem SID": "SID160747251", "total luciferase, z-score": 0.298}
{"target gene": "MANBAL", "PubChem SID": "SID160747252", "total luciferase, z-score": -2.99}
{"target gene": "MANBAL", "PubChem SID": "SID160747253", "total luciferase, z-score": -1.78}
{"target gene": "RAD54L", "PubChem SID": "SID160720036", "total luciferase, z-score": -0.139}
{"target gene": "RAD54L", "PubChem SID": "SID160720037", "total luciferase, z-score": -0.52}
{"target gene": "RAD54L", "PubChem SID": "SID160720038", "total luciferase, z-score": 0.103}
{"target gene": "WDPCP", "PubChem SID": "SID160739933", "total luciferase, z-score": "3.73 (active)"}
{"target gene": "WDPCP", "PubChem SID": "SID160739934", "total luciferase, z-score": -1.06}
{"target gene": "WDPCP", "PubChem SID": "SID160739935", "total luciferase, z-score": -0.766}
{"target gene": "ADAMTS16", "PubChem SID": "SID160730705", "total luciferase, z-score": -0.467}
{"target gene": "ADAMTS16", "PubChem SID": "SID160760454", "total luciferase, z-score": -0.618}
{"target gene": "ADAMTS16", "PubChem SID": "SID160760455", "total luciferase, z-score": -0.2}
{"target gene": "DEFA6", "PubChem SID": "SID160732618", "total luciferase, z-score": 0.52}
{"target gene": "DEFA6", "PubChem SID": "SID160753724", "total luciferase, z-score": 0.543}
{"target gene": "DEFA6", "PubChem SID": "SID160753735", "total luciferase, z-score": 0.388}
{"target gene": "SLC14A1", "PubChem SID": "SID160716945", "total luciferase, z-score": -0.258}
{"target gene": "SLC14A1", "PubChem SID": "SID160716946", "total luciferase, z-score": 1.42}
{"target gene": "SLC14A1", "PubChem SID": "SID160731759", "total luciferase, z-score": -1.05}
{"target gene": "SMCO2", "PubChem SID": "SID160764532", "total luciferase, z-score": 1.44}
{"target gene": "SMCO2", "PubChem SID": "SID160764533", "total luciferase, z-score": 2.63}
{"target gene": "SMCO2", "PubChem SID": "SID160764534", "total luciferase, z-score": -1.22}
{"target gene": "DMBX1", "PubChem SID": "SID160756612", "total luciferase, z-score": -0.238}
{"target gene": "DMBX1", "PubChem SID": "SID160756613", "total luciferase, z-score": 0.337}
{"target gene": "DMBX1", "PubChem SID": "SID160756614", "total luciferase, z-score": -0.1}
{"target gene": "ARHGAP18", "PubChem SID": "SID160754546", "total luciferase, z-score": -1.87}
{"target gene": "ARHGAP18", "PubChem SID": "SID160754547", "total luciferase, z-score": -0.432}
{"target gene": "ARHGAP18", "PubChem SID": "SID160754548", "total luciferase, z-score": -0.422}
